{"sequences": {"note": "Protein sequences, listed by entry. Tags and fused reporters are not part of them. Residues count along the entry.", "UniProt P40939, residues 37-763": "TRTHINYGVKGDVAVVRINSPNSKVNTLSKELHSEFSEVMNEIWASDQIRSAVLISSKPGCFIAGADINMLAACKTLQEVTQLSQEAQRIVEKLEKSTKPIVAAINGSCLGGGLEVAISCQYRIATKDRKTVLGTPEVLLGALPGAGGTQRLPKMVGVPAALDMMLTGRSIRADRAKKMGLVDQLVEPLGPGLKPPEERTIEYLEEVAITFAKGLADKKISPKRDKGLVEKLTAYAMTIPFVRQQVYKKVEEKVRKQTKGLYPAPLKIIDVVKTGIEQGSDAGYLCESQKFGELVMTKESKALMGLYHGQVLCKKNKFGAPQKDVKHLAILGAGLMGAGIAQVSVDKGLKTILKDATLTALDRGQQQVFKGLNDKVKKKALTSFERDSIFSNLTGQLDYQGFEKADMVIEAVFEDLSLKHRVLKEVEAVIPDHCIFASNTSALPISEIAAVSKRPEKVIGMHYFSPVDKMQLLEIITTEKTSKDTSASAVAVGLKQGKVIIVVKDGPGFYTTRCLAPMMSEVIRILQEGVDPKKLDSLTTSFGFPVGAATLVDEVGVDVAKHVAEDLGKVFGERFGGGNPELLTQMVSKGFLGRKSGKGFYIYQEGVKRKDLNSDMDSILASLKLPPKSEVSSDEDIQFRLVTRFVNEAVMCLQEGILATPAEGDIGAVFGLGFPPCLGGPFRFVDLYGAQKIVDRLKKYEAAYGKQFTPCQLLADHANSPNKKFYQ", "UniProt P12004": "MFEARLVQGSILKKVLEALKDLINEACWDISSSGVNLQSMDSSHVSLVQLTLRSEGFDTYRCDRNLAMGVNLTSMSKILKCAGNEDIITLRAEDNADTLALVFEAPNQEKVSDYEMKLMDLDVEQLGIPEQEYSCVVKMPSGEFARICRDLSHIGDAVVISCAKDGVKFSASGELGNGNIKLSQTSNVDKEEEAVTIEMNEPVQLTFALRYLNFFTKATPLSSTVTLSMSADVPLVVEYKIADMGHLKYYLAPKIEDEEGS"}, "source": "paper PMC10658966", "molecules": {"B1": {"name": "CAT (protein, UniProt P04040 1-527)", "chain": "MADSRDPASDQMQHWKEQRAAQKADVLTTGAGNPVGDKLNVITVGPRGPLLVQDVVFTDEMAHFDRERIPERVVHAKGAGAFGYFEVTHDITKYSKAKVFEHIGKKTPIAVRFSTVAGESGSADTVRDPRGFAVKFYTEDGNWDLVGNNTPIFFIRDPILFPSFIHSQKRNPQTHLKDPDMVWDFWSLRPESLHQVSFLFSDRGIPDGHRHMNGYGSHTFKLVNANGEAVYCKFHYKTDQGIKNLSVEDAARLSQEDPDYGIRDLFNAIATGKYPSWTFYIQVMTFNQAETFPFNPFDLTKVWPHKDYPLIPVGKLVLNRNPVNYFAEVEQIAFDPSNMPPGIEASPDKMLQGRLFAYPDTHRHRLGPNYLHIPVNCPYRARVANYQRDGPMCMQDNQGGAPNYYPNSFGAPEQQPSALEHSIQYSGEVRRFNTANDDNVTQVRAFYVNVLNEEQRKRLCENIAGHLKDAQIFIQKKAVKNFTEVHPDYGSHIQALLDKYNAEKPKNAIHTFVQSGSHLAAREKANL"}, "B2": {"name": "PGD (protein, UniProt P52209 1-483)", "chain": "MAQADIALIGLAVMGQNLILNMNDHGFVVCAFNRTVSKVDDFLANEAKGTKVVGAQSLKEMVSKLKKPRRIILLVKAGQAVDDFIEKLVPLLDTGDIIIDGGNSEYRDTTRRCRDLKAKGILFVGSGVSGGEEGARYGPSLMPGGNKEAWPHIKTIFQGIAAKVGTGEPCCDWVGDEGAGHFVKMVHNGIEYGDMQLICEAYHLMKDVLGMAQDEMAQAFEDWNKTELDSFLIEITANILKFQDTDGKHLLPKIRDSAGQKGTGKWTAISALEYGVPVTLIGEAVFARCLSSLKDERIQASKKLKGPQKFQFDGDKKSFLEDIRKALYASKIISYAQGFMLLRQAATEFGWTLNYGGIALMWRGGCIIRSVFLGKIKDAFDRNPELQNLLLDDFFKSAVENCQDSWRRAVSTGVQAGIPMPCFTTALSFYDGYRHEMLPASLIQAQRDYFGAHTYELLAKPGQFIHTNWTGHGGTVSSSSYNA"}}, "note": "Results are given in words; binding and its absence hold for the method and conditions named. Binding seen in cells or lysates may run through a third protein. These calls come from enrichment with a bait or labelling near it, and not all partners need be listed."}
{"biological_target": "Hydroxyacyl-CoA dehydrogenase alpha subunit (HADHA) (human (endogenous in HO-8910)) (UniProt P40939)", "assay": "affinity purification with mass spectrometry; HO-8910 lysate (immunoprecipitation lysis buffer with 100 µM PMSF), protein A-agarose with anti-HADHA antibody (1:50) or normal rabbit IgG (1 µg/ml); interacting proteins identified by mass spectrometry"}
{"molecule": "PCNA (from UniProt P12004 1-261)", "binding": "binds"}
{"molecule": "B1", "binding": "binds"}
{"molecule": "B2", "binding": "binds"}
